Source: US20240034776A1
No constants are given. Whether binding was seen depends on the method and setting. Some binding calls cover weakened binding; strength is not graded here.

Legend:
[1] = target: T1, ITPRIPL1 P8 polypeptide (human); experiment: peptide ELISA, retold in Example 25
T1 sequence (peptide): RLLEMEFEERKRAAE

[2] = target: T1, ITPRIPL1 P8 polypeptide (human); experiment: ELISA, peptides coated at 1 µg/ml, antibody at 1 µg/ml
[3] = target: T2, cynomolgus monkey ITPRIPL1 polypeptide corresponding to human ITPRIPL1 P8 (cynomolgus monkey); experiment: ELISA, peptide coated at 1 µg/ml, antibody at 0.5 µg/ml
T2 sequence (peptide): RLLEMEFEERKQAAE

B1: monoclonal antibody 18B12D1A6 (antibody, mouse IgG1, kappa, V domains shown)
VH: QVQLQQSGPELVKPGASVKMSCKASGYTFTDYVISWVKQRTGQGLEWIGEIFPRTGSTYFNENFKAKATLTADKSSNTAYMQLSSLTSEDSAAYFCAFITSVDWAMEYWGQGTSVTVSS
VL: DVVMTQIPLSLPVSLGDQASISCRSSQSLANSKGNTHLHWYLQKPGQSPKLLIYKVSNRFSGVPDRFSGSGSGTDFTLKISRVEAEDLGLYFCSQSTHVPYTFGGGTKLEIKR
In the case of B1, the binding [1] is reported as “binds” and the binding [2] is reported as “binds”.

B2: monoclonal antibody 13B7A6H3 (antibody, mouse IgG1, kappa, V domains shown)
VH: QVQLQQSGPELVKPGASVRMSCKTSGYTFTDYVISWVKQRPGQGLEWIGEIFPRTGSTYYNENFKATATLTADKSSNTAYMQLSSLTSEDSAAYFCAFITSVDWAMEYWGQGTSVTVSS
VL: DVVMTQTPLSLPVSLGDQASISCRSSESLVNSKGNTHLHWYLQKPGQSPKLLIYKVSNRFSGVPDRFSGSGSGTDFTLKISRVEAEDLGVYFCSQSTHAPYTFGGGTKLEIKR
For B2, the binding [3] was “binds”.
